PubChem BioAssay AID602196 – INSERM | 2012
Here is one part, drawn at random, of about 23,000 reagents. 455 of them (2%) were called active. 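Active includes both protection and sensitisation; some change values fall well beyond the stated -50 to +50 range.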 Not stated in the record: the amount of reagent.

Purpose: 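Modifiers of cisplatin sensitivity in A549 cells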
System: human A549 lung cancer cells
Reagent: siRNA pair against human genes
Time to read-out: 48 h transfection before cisplatin; time from cisplatin to read-out not stated
Conditions: cisplatin at a dose killing half of control-siRNA cells; exact dose and duration not given
Measured: 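Shift in cisplatin death relative to control siRNA, from -50 (all cells die) to +50 (no cells die); siRNAs harmful on their own scored 0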
Reading the numbers: two-siRNA summed score (-2 to +2): higher = both siRNAs protect from cisplatin killing; -2 means both sensitise; mean protection from cisplatin (shift in death) and protection from cisplatin (shift in death), siRNA C and protection from cisplatin (shift in death), siRNA D: higher = protection from cisplatin killing
Call rule: 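Each siRNA scores 0 if harmful alone by LDH or WST-1, otherwise +1 if it reduces and -1 if it increases cisplatin killing; a gene is active when both siRNAs agree (sum +2 or -2)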
Calls: active = both siRNAs shift cisplatin killing the same way; inactive = no consistent shift, or siRNA harmful alone

gene | two-siRNA summed score (-2 to +2) | mean protection from cisplatin (shift in death) (%) | protection from cisplatin (shift in death), siRNA C (%) | protection from cisplatin (shift in death), siRNA D (%) | Call
CYP4F2 (GeneID 8529) | 0 | -0.3 | 14.8 | -15.5 | inactive
RHBG (GeneID 57127) | 1 | 8.7 | -0.3 | 17.6 | inactive
LOC390641 | 1 | 10 | 9.6 | 10.3 | inactive
PRDM5 (GeneID 11107) | 1 | 7.5 | 8.9 | 6 | inactive
CDA (GeneID 978) | 0 | 6.3 | 2 | 10.5 | inactive
SYT9 (GeneID 143425) | 1 | 9.3 | 4.8 | 13.9 | inactive
LOC440981 (retired record) (GeneID 440981) | 1 | 12 | 5.3 | 18.7 | inactive
MGA (GeneID 23269) | 0 | 0.3 | 5.1 | -4.4 | inactive
UBASH3A (GeneID 53347) | 0 | -6.6 | 7.7 | -20.9 | inactive
SLC7A5P2 (GeneID 387254) | 1 | 7.2 | 1.2 | 13.2 | inactive
ANKRD7 (GeneID 56311) | 0 | -11.6 | -19.8 | -3.3 | inactive
PTBP2 (GeneID 58155) | 0 | -3.1 | 5.4 | -11.6 | inactive
SLC25A18 (GeneID 83733) | 0 | 4.8 | 10 | -0.3 | inactive
ARPC5 (GeneID 10092) | 0 | 1.1 | -0.2 | 2.5 | inactive
C1orf94 (GeneID 84970) | 1 | 16.1 | 8.1 | 24.2 | inactive
PDGFRA (GeneID 5156) | -1 | -19 | -18.7 | -19.3 | inactive
LOC387709 | 0 | -1.4 | -6.4 | 3.7 | inactive
LOC442565 | 1 | 11.2 | 5 | 17.4 | inactive
LOC389322 | 0 | 1 | 1.7 | 0.3 | inactive
VEZT (GeneID 55591) | 0 | -2.8 | -0.2 | -5.4 | inactive
LOC440010 | 1 | 11.1 | 10.3 | 11.8 | inactive
KRT37 (GeneID 8688) | 0 | 11.1 | 7.6 | 14.5 | inactive
DPYSL3 (GeneID 1809) | 0 | -7.2 | -9.6 | -4.8 | inactive
SPATA12 (GeneID 353324) | 0 | 11.1 | 11.3 | 11 | inactive
SGPP1 (GeneID 81537) | 0 | -10.2 | -3.1 | -17.4 | inactive
LOC442436 | 1 | 9.9 | -1.6 | 21.4 | inactive
GRID2 (GeneID 2895) | 0 | -7.5 | -6.1 | -8.9 | inactive
NNMT (GeneID 4837) | 0 | -0.6 | 0 | -1.2 | inactive
LOC283259 | 0 | 23.2 | 30.9 | 15.5 | inactive
HAPSTR1 (GeneID 29035) | 0 | 7.6 | 8.5 | 6.7 | inactive
POLR2D (GeneID 5433) | -1 | -10.1 | -14.9 | -5.3 | inactive
UNC93A (GeneID 54346) | 0 | 6.4 | 10.7 | 2.2 | inactive
LOC392542 | 0 | 9.9 | 8.3 | 11.5 | inactive
DHX40 (GeneID 79665) | 0 | 7 | -2.3 | 16.3 | inactive
CHRNA10 (GeneID 57053) | 0 | -0.8 | 13.2 | -14.7 | inactive
PPM1L (GeneID 151742) | 1 | 11.1 | -2.1 | 24.3 | inactive
LOC401967 | 1 | 16.1 | 11.5 | 20.8 | inactive
SLC37A2 (GeneID 219855) | 0 | 2.5 | -13.1 | 18.1 | inactive
MEIS3 (GeneID 56917) | 0 | 7.4 | 9.2 | 5.7 | inactive
SACK1B (GeneID 222584) | 1 | 14.5 | 9.4 | 19.7 | inactive
HACD3 (GeneID 51495) | 0 | -0.4 | -13.1 | 12.3 | inactive
ZNF133 (GeneID 7692) | 0 | -4.4 | -2.3 | -6.5 | inactive
TMEM192 (GeneID 201931) | 1 | 12.1 | 7.2 | 16.9 | inactive
USP46 (GeneID 64854) | 1 | 6.8 | -8.8 | 22.5 | inactive
APRT (GeneID 353) | 0 | 0.1 | -8.1 | 8.3 | inactive
GPC5 (GeneID 2262) | -1 | -13.4 | -12.2 | -14.6 | inactive
RHOJ (GeneID 57381) | 0 | -0.1 | 2 | -2.2 | inactive
MRPL23 (GeneID 6150) | 1 | 2.8 | -8.9 | 14.4 | inactive
SYNGR3 (GeneID 9143) | 0 | 16.7 | 31 | 2.4 | inactive
CPT2 (GeneID 1376) | -1 | -9.5 | -14.9 | -4.1 | inactive
ADAP2 (GeneID 55803) | 0 | 14.7 | 9.2 | 20.2 | inactive
TAOK3 (GeneID 51347) | 0 | 1.9 | 14.7 | -10.8 | inactive
ESYT1 (GeneID 23344) | 0 | 6.8 | 5.9 | 7.7 | inactive
KIAA0767 | 0 | 6.6 | 4.6 | 8.7 | inactive
LOC441468 | 0 | 5.3 | 5 | 5.6 | inactive
PPP1R27 (GeneID 116729) | 0 | 1.7 | 4 | -0.6 | inactive
SRPX (GeneID 8406) | 0 | -6.8 | -4 | -9.7 | inactive

Copied from the listing, 9 entries:
gene | two-siRNA summed score (-2 to +2) | mean protection from cisplatin (shift in death) (%) | protection from cisplatin (shift in death), siRNA C (%) | protection from cisplatin (shift in death), siRNA D (%) | Call
SLC37A2 (GeneID 219855) | 0 | 2.5 | -13.1 | 18.1 | inactive
MEIS3 (GeneID 56917) | 0 | 7.4 | 9.2 | 5.7 | inactive
SACK1B (GeneID 222584) | 1 | 14.5 | 9.4 | 19.7 | inactive
HACD3 (GeneID 51495) | 0 | -0.4 | -13.1 | 12.3 | inactive
ZNF133 (GeneID 7692) | 0 | -4.4 | -2.3 | -6.5 | inactive
TMEM192 (GeneID 201931) | 1 | 12.1 | 7.2 | 16.9 | inactive
USP46 (GeneID 64854) | 1 | 6.8 | -8.8 | 22.5 | inactive
APRT (GeneID 353) | 0 | 0.1 | -8.1 | 8.3 | inactive
GPC5 (GeneID 2262) | -1 | -13.4 | -12.2 | -14.6 | inactive
